The test has as its target T-cell immunoglobulin and mucin domain-containing protein 3 (human (endogenous in HaCaT)) (UniProt Q8TDQ0). Kind of test: co-IP; HaCaT cell lysate incubated overnight at 4 °C with 10 µg anti-TIM3 antibody, protein A/G magnetic beads, five washes with TBST, western blotting; legend speaks of cells following TIM3 knockdown.

Protein sequences, listed by entry. Tags and fused reporters are not part of them. Residues count along the entry.
UniProt Q8TDQ0, residues 22-301: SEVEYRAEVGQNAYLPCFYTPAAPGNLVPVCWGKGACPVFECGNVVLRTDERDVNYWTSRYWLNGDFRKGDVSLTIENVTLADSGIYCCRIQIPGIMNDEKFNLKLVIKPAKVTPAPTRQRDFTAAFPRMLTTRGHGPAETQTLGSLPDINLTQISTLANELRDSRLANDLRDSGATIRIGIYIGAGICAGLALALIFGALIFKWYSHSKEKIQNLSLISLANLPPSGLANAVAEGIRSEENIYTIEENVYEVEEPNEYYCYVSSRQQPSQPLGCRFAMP

No constants are given. Whether binding was seen depends on the method and setting. Binding seen in cells or lysates may run through a third protein. Some entries that bind do so weakly or less than the wild type.

With “Galectin 9 (from UniProt O00182 1-355) (ligand)”, the binding result is listed as “binds”.

Source of the values: publication PMC12660616.
